Patent publication US20130273113A1 (priority 2012, published 2013)
For at least one compound, name, drawing or mass did not settle the structure.

Tested on: nasal epithelial cells
Assay: Detection of apoptosis (caspase-3 staining) and necrosis (morphology) in nasal epithelium
Details: 2 hours following nasal treatment, 15 μl

CCCCCCCCCCCCCCCC[n+]1ccccc1 [CPC, cetylpyridinium chloride]
apoptosis and necrosis of nasal epithelium: severe necrotic changes
